## Library screen at single concentrations

Data taken from ChEMBL document CHEMBL3988442, “University of Dundee, Small-Polar-MMV Screening Library” (2021).

Results are given as percent effect. How 0% and 100% were set is not recorded. Most values in the screen are low, and negative values occur. Compounds were drawn at random from those tested, without regard to their results.

T. brucei: 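Whole-parasite assay of Trypanosoma brucei over 72 hours; the read-out is not stated. Compounds at 30 µM. Direction is inferred from retests: higher values go with stronger inhibition. Values scatter widely below zero; nearly all retest evidence comes from the higher of the two concentrations used. Of about 64,000 compounds tested this way, about 940 (1.5%) reached 50% or more in at least one test.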
Toxoplasma: 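Assay of Toxoplasma gondii numbers, read through their beta-galactosidase reporter with a colour substrate. Concentration: 10 µM. The record gives no direction; the compounds picked for IC50 retests had high values, so higher reads as fewer parasites. Of about 67,000 compounds tested this way, about 260 (0.38%) reached 50% or more in at least one test.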

O=C(O)[C@@H]1CN(C(=O)CCc2ccccn2)C[C@H]1c1ccccc1 read T. brucei: -25.91%; Toxoplasma: 10%.
CSc1sc(NC(=O)C2CCCN(C(N)=O)C2)nc1C (centres undefined) read T. brucei: -35.12%; Toxoplasma: -1.554%.
O=S1(=O)COCCN1Cc1ccc(F)c(F)c1 read T. brucei: -5.543%; Toxoplasma: 14.24%.
Cc1n[nH]c(C)c1CCNC(=O)C1CCCN(Cc2ccco2)C1 (centres undefined) read T. brucei: -5.61%; Toxoplasma: 1.831%.
CS(=O)(=O)N1CCC(C(=O)NC(Cc2ccsc2)c2nccs2)CC1 (centres undefined) read T. brucei: 23.18%; Toxoplasma: 0.5766%.
O=C(O)C(F)(F)F.O=C1CC(c2ccccc2)C2(CCN(CC3CC3)CC2)N1 (centres undefined) read T. brucei: 21.48%; Toxoplasma: 2.991%.
CC(=O)N1CCCN(CCCSc2ccccc2Cl)CC1 read T. brucei: -15.98%; Toxoplasma: -0.06242%.
Cc1cnc2n(c1=O)C(CC(=O)NCc1cccnc1)CS2 (centres undefined) read T. brucei: -10.49%; Toxoplasma: 5.057%.
O=C(c1cnc(C2CC2)s1)N1CCCCC1Cn1cccn1 (centres undefined) read T. brucei: 7.236%; Toxoplasma: 2.531%.
O=C(NCC[S+]([O-])c1ccccc1)NCC(F)(F)F (centres undefined) read T. brucei: -8.525%; Toxoplasma: -10.98%.
[H][C@]12CC(COCc3cccnc3)C[C@]1([H])N(Cc1cccnc1)CCO2 (some centres undefined) read T. brucei: -36.15%; Toxoplasma: 9.575%.
Cc1nc(C)n(CC2CCCCN2CCCS(N)(=O)=O)n1 (centres undefined) read T. brucei: -41.32%; Toxoplasma: -6.643%.
COCC(=O)NCc1cc(=O)n2c(n1)CN(Cc1ccco1)CCC2 read T. brucei: -47.83%; Toxoplasma: -22.4%.
CS(=O)(=O)NC[C@H]1OC[C@@H](NC2CCC(F)(F)CC2)[C@@H]1O read T. brucei: -5.194%; Toxoplasma: -2.966%.
CN1CCCC(N2CCN(c3nc4ccccn4c3C#N)CC2)C1 (centres undefined) read T. brucei: -16.46%; Toxoplasma: -5.914%.
CC(C)NC(=O)N1CCC2(CC1)C(=O)NCCN2Cc1ccccc1.O=C(O)C(F)(F)F read T. brucei: -18.31%; Toxoplasma: -11.89%.
CCCn1nc(C)c(C(=O)N(C)[C@@H]2CC[C@@H](N3CCCC3)[C@@H]2O)c1C read T. brucei: 0.2542%; Toxoplasma: -11.24%.
Cc1noc(C)c1CN1CCC2(COCc3cnc(N(C)C)nc32)C1.O=C(O)C(F)(F)F (centres undefined) read T. brucei: -18.23%; Toxoplasma: -6.718%.
COCC1CN(Cc2ccsc2)Cc2cnn(C)c21 (centres undefined) read T. brucei: -20.94%; Toxoplasma: 7.947%.
CN(C)S(=O)(=O)NCC(O)c1cc2ccccc2s1 (centres undefined) read T. brucei: 14.03%; Toxoplasma: -2.761%.
COc1ccc(CNC2(Cc3cc(CC(C)C)on3)COC2)cc1 read T. brucei: -51.98%; Toxoplasma: 8.486%.
Cc1nn(C)c(C)c1C(C)NC(=O)c1cc(CN2CCC(O)CC2)on1 (centres undefined) read T. brucei: -46.09%; Toxoplasma: 1.402%.
COc1ccc(NC(=O)N(C)Cc2ccc(Br)o2)cn1 read T. brucei: -24.05%; Toxoplasma: 5.74%.
N#CC1(NC(=O)c2ccc(F)c(Br)c2)CCSC1 (centres undefined) read T. brucei: 13.08%; Toxoplasma: -7.163%.
Cn1ccnc1COc1ccc(CSc2nnnn2C2CC2)cc1 read T. brucei: -43.83%; Toxoplasma: 3.663%.
Cc1nc(N2CCCC(C)C2)nc2cc(S(C)(=O)=O)ccc12 (centres undefined) read T. brucei: -21.27%; Toxoplasma: 0.1504%.
CC(C)c1nn(C)c(Cl)c1CNCc1cccnc1N(C)C.Cl read T. brucei: -22.08%; Toxoplasma: 3.491%.
CCN(CCc1nc2cc(C)ccc2[nH]1)C(=O)COC read T. brucei: -7.667%; Toxoplasma: -12.93%.
CCN(Cc1ccncc1)C1CCCN(Cc2ccc(F)cc2Cl)C1 (centres undefined) read T. brucei: -55.57%; Toxoplasma: -5.493%.
O=C(NC1CCCCC1)N1CCCC1c1nnc2n1CCNC2 (centres undefined) read Toxoplasma: -1.279%.
CC[C@H](C)[C@H](N)C(=O)N1CC(=O)c2sc(NC3CCCCC3)nc2C1 read T. brucei: 89.66%; Toxoplasma: 13.73%.
CN(C)Cc1ccc(C2CCCCN2C(=O)c2cc(C3CC3)n[nH]2)cc1 (centres undefined) read T. brucei: 1.306%; Toxoplasma: 2.39%.
CCN1CCN(C(=O)NC(C)c2noc(-c3ccccc3)n2)CC1 (centres undefined) read T. brucei: 14.21%; Toxoplasma: -5.514%.
O=C(Nc1nccs1)NC1CCN(CC2CCCC2)CC1 read T. brucei: -1.133%; Toxoplasma: 7.981%.
Cc1ccc(CN2CCN(Cc3ccc4nonc4c3)CC2=O)cc1 read T. brucei: -27.46%; Toxoplasma: -39.74%.
CNC(=O)CCCNCc1c(C)nn(C)c1N(C)C read T. brucei: -24.19%; Toxoplasma: -7.293%.
CC(=O)N[C@@H]1CN(Cc2cccs2)C[C@H]1c1ccc(C)o1 read T. brucei: -36.09%; Toxoplasma: -8.365%.
O=c1c2cn[nH]c2nc(SCCN2CCCC2)n1-c1ccccc1 read T. brucei: -19.87%; Toxoplasma: -1.013%.
CC1CCCCN1Cc1ccc(-c2ccccc2C(=O)O)cc1 (centres undefined) read T. brucei: -22.18%; Toxoplasma: -1.567%.
O=C(NCCn1ccnc1)N1CCN(Cc2ccco2)CC1 read Toxoplasma: 27.19%.
[H][C@]12CC[C@]([H])(CN(C3Cc4ccccc4C3)C1)N(C(=O)CNC(N)=O)C2 read T. brucei: -19.33%; Toxoplasma: -1.01%.
CCOCC1c2c(ncn2C)CCN1C(=O)c1ccoc1 (centres undefined) read T. brucei: -3.795%; Toxoplasma: 1.825%.
CCCC(=O)N1CCN(CCN(C)C)c2nc(C)ccc2C1.O=C(O)C(F)(F)F.O=C(O)C(F)(F)F read T. brucei: -14.73%; Toxoplasma: -17%.
Cc1nc2c(c(N3CCCOCC3)n1)CCN(c1nccs1)CC2 read T. brucei: -7.857%; Toxoplasma: 3.48%.
CC(C)CCn1ccc(NC2CCSC2)n1 (centres undefined) read T. brucei: -29.58%; Toxoplasma: -2.304%.
CNS(=O)(=O)c1csc(C(=O)N(C)Cc2ccccc2C)c1 read T. brucei: -24.08%; Toxoplasma: 1.67%.
Nc1ncc(C(=O)N2CCCC(N)CC2)c(-c2ccccc2)n1 (centres undefined) read T. brucei: -211.3%; Toxoplasma: -2.535%.